Data as given in PubChem BioAssay AID1487 (National Center for Advancing Translational Sciences (NCATS), 2009).
Some of the results follow. The main result of the screen is listed elsewhere. These columns were measured beside it and carry no call. Compounds called inactive in the main read-out are mostly missing here. Potencies come from curve fits of mixed quality, noted in brackets.

Assay: qHTS Assay for Modulators of Lamin A Splicing
Details: HeLa LMNA splicing GFP/RFP minigene ratio, 48 h
Method in brief: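 Read-out is the ratio of GFP to DsRed2 object intensity, acquired by 488 nm laser-scanning cytometry on HeLa lamin A-EGFP minigene reporter cells. Compound incubation 48 hrs at 37 °C in Opti-MEM with 2% FBS; DMSO 0.5% final.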

[1] = measured here: RFP viability control channel
[2] = measured here: GFP splicing reporter channel

SMILES | AC50 [1] | AC50 [2]
C/C(CCC(C)C)=N\NC(=O)COc1ccccc1-c1ccccc1 | 8.91 µM [rising, partial curve] | 
Cc1ccccc1-c1cc(C(=O)Nc2sc(C(=O)OC(C)C)c(C)c2C#N)c2ccccc2n1 | 2.82 µM [rising, full curve] | 3.16 µM [rising, single point]
Oc1ccc2c(ccc3[nH]cnc32)c1 | 0.0141 µM [falling, full curve, poor fit] | 
Cc1ccc(Nc2cc(=O)oc3ccccc23)c(C)c1 | 35.5 µM [falling, single point] | 
CC1=NN(C(=O)c2ccc(Cn3ccc([N+](=O)[O-])n3)cc2)C(O)(C(F)(F)F)C1 (stereo not given) | 0.501 µM [falling, full curve, poor fit] | 
COC(=O)c1sc2ccccc2c1S(=O)(=O)N1CCN(c2ccc(C(C)=O)cc2)CC1 |  | 0.0141 µM [falling, full curve, poor fit]
Cc1cccc(N(C(=O)c2ccc(Cl)cc2)C2CS(=O)(=O)CC2OC(=O)c2ccc(Cl)cc2)c1 (stereo not given) | 7.08 µM [rising, partial curve, poor fit] | 5.62 µM [rising, full curve, poor fit]
COc1cc(NC(=O)c2cccnc2)ccc1-c1cc2ccccc2oc1=O | 0.0112 µM [falling, full curve, poor fit] | 
COc1ccc(Cl)cc1C(=O)Nn1c(-c2cccs2)nc2ccccc2c1=O | 7.08 µM [rising, partial curve] | 
O=C(NCC(c1cccs1)N1CCOCC1)c1ccc(Cl)s1 (stereo not given) |  | 20 µM [falling, partial curve, poor fit]
CC(=O)c1cc(-c2ccc(F)cc2)n(CCC(=O)NC2CCCCC2)c1C |  | 1.26 µM [rising, partial curve, poor fit]
CC(C)(C)c1cc(NCCCn2ccnc2)n2ncc(-c3ccc(Cl)cc3)c2n1 | 28.2 µM [falling, single point] | 28.2 µM [falling, single point]
O=C(CN1CCN(S(=O)(=O)c2ccccc2)CC1)Nc1ccc(Cl)c(Cl)c1 | 31.6 µM [rising, single point] | 22.4 µM [rising, single point]
COc1cc2c(cc1OC)CN(Cc1ccc(C)s1)CC2 |  | 0.0224 µM [rising, full curve, poor fit]
COc1ccccc1C1C(C(C)=O)=C(C)N=c2s/c(=C\c3cc(OC)c(OC)c(OC)c3)c(=O)n21 (stereo not given) | 35.5 µM [rising, single point] | 
Cc1cccc(N=c2oc3cc(O)ccc3cc2C(N)=O)c1 | 22.4 µM [rising, single point] | 12.6 µM [rising, partial curve]
O=S(=O)(Nc1cccc(-c2ccc(N3CCCCC3)nn2)c1)c1ccc(F)cc1F | 35.5 µM [falling, single point] | 
Cc1ccc(-c2nc3cc(Cl)ccc3o2)cc1 | 3.55 µM [falling, full curve, poor fit] | 4.47 µM [falling, full curve]

Structures shown so far that have two or more sulfur atoms:
SMILES | AC50 [1] | AC50 [2]
COC(=O)c1sc2ccccc2c1S(=O)(=O)N1CCN(c2ccc(C(C)=O)cc2)CC1 |  | 0.0141 µM [falling, full curve, poor fit]
O=C(NCC(c1cccs1)N1CCOCC1)c1ccc(Cl)s1 (stereo not given) |  | 20 µM [falling, partial curve, poor fit]

Additional structures:

SMILES | AC50 [1] | AC50 [2]
C1=Nc2c(NCc3ccccc3)ncnc2Oc2ccccc21 | 11.2 µM [rising, single point] | 
COc1ccc(C2=C(C(C)=O)Sc3nnc(-c4ccccc4)n3N2C(C)=O)cc1 |  | 22.4 µM [falling, partial curve, poor fit]
CNC(=O)COC(=O)/C=C/c1ccco1 |  | 7.08 µM [falling, partial curve, poor fit]
O=C(NCC(c1cccs1)N1CCOCC1)c1ccc([N+](=O)[O-])cc1 (stereo not given) | 25.1 µM [rising, single point] | 
CCCc1[nH]nc2c1C(c1cn[nH]c1-c1ccc(F)cc1)C(C#N)=C(N)O2 (stereo not given) | 10 µM [rising, partial curve, poor fit] | 
CCCN(CCC)CCNC(=O)CCC(=O)Nc1ccc2nc(N3CCN(C)CC3)cc(C)c2c1 | 5.62 µM [falling, single point] | 
COc1cc(NC(=O)c2cc3cc4cc(OC)ccc4nc3o2)cc(OC)c1 | 1.41 µM [falling, partial curve] | 2 µM [falling, full curve]
CCCNC(=S)N1CCN(C(c2ccccc2)c2ccccc2)CC1 | 22.4 µM [rising, single point] | 8.91 µM [rising, single point]
CC(C)(C)C(=O)NC(Nc1cccc2cccnc12)C(Cl)(Cl)Cl (stereo not given) | 20 µM [falling, partial curve] | 
COC(=O)c1cc(C#N)c(OC(C)C)nc1C | 0.447 µM [falling, full curve, poor fit] | 
CC1=Nc2cc(C(=O)NCc3ccco3)ccc2Sc2ccc(C)cc21 | 5.01 µM [rising, single point] | 
Cc1ccsc1/C=C1/C(=O)NN(c2ccccc2)C1=O | 31.6 µM [rising, single point] | 11.2 µM [rising, partial curve, poor fit]
COc1cc(/C=C2\CC/C(=C\c3cc(OC)c(OC)c(OC)c3)C2=O)cc(OC)c1OC | 0.141 µM [rising, full curve, poor fit] | 
COCCCn1c(=O)/c(=C\c2ccccc2OC(F)F)s/c1=C(/C#N)C(N)=O |  | 0.00282 µM [rising, full curve, poor fit]
Cc1cc(C)cc(NC(=S)N=Nc2c(O)n(C)c3ccc(S(=O)(=O)N4CCOCC4)cc23)c1 | 0.891 µM [rising, full curve] | 
CCOc1ccc(N2C(=O)CC(NCCNc3ccc(C(=O)c4cccs4)cc3)C2=O)cc1 (stereo not given) | 0.00316 µM [falling, full curve, poor fit] | 
C/C(=N\Nc1nc2ccccc2[nH]1)c1cccs1 | 11.2 µM [rising, partial curve, poor fit] | 
CCCn1c2ccccc2c2cnn(CC(=O)NC(C)CC)c(=O)c21 (stereo not given) |  | 0.794 µM [falling, full curve, poor fit]
